From publication PMC11496881
These are yes or no findings as the source states them, for the method shown. In cells and extracts the contact can be indirect. Some binding calls cover weakened binding; strength is not graded here.

The chains behind the UniProt entries cited, without tags or fusion partners. Residues count along the entry.
UniProt P63165, residues 1-97: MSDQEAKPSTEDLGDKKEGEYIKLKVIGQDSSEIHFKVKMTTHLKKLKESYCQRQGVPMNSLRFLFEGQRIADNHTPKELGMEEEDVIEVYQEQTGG
UniProt Q9Z172, residues 1-92: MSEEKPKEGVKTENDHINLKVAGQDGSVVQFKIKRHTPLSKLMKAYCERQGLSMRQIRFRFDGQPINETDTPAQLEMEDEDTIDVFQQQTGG

How the values were obtained:
[1] = target: T1, Liver kinase B1 (LKB1), HKC-8 cells (human (endogenous in HKC-8)) (UniProt Q15831); assay: co-IP; lysates of HKC-8 cells transfected with pcDNA3 or pDel-beta-catenin for 24 h, precipitated overnight at 4 °C with anti-LKB1 and protein A/G plus agarose, blotted with anti-Sumo1 or anti-Sumo2/3
T1 sequence: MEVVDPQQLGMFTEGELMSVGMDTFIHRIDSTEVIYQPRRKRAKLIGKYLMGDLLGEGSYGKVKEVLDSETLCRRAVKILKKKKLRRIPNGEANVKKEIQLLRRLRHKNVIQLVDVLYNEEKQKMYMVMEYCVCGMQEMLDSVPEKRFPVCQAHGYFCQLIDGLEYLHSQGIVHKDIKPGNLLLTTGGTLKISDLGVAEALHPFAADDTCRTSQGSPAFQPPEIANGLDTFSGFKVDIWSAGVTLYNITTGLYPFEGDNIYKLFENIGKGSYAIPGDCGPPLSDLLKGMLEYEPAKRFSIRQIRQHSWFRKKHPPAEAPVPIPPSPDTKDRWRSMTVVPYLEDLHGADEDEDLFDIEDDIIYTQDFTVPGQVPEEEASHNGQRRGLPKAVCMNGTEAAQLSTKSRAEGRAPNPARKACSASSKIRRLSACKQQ

[2] = target: T2, Liver kinase B1 (LKB1), mouse kidney (mouse (endogenous in kidney tissue)) (UniProt Q9WTK7); assay: co-IP; mouse kidney homogenates (sham and UIRI; UUO wild type and Ksp-beta-catenin-/-) precipitated overnight at 4 °C with anti-LKB1 and protein A/G plus agarose, washed three times with lysis buffer, blotted with anti-Sumo1, anti-Sumo2/3 or anti-Sumo3
T2 sequence: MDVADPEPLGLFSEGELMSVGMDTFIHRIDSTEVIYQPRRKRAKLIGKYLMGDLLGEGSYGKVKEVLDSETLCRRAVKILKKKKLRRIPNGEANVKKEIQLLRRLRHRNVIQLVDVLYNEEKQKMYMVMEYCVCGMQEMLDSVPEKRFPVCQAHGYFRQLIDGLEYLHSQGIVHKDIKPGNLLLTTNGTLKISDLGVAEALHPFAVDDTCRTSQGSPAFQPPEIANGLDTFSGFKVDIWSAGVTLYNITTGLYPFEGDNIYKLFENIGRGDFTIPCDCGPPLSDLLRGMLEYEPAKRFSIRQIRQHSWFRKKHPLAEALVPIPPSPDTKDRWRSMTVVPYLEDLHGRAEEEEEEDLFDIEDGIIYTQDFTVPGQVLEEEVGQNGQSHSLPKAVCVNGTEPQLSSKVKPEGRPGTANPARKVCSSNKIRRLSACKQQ

binding [1]	binding [2]	Substance
binds		Sumo1, HKC-8 cells (from UniProt P63165 1-97)
	binds	Sumo3, mouse kidney (from UniProt Q9Z172 1-92)
